Reference: PubChem BioAssay AID1224826 (NIAID, 2016)
Screen: 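Knock-downs that raise or lower Tnf reporter signal after endotoxin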 (primary screen). Cells: RAW264.7 G9 macrophages from mouse bearing reporters for p65 (GFP) and the Tnf promoter (mCherry). Knock-down reagent: siRNA pool against mouse genes, 100 nM. Time to read-out: 16 h of LPS stimulation, after 2 days of siRNA transfection. Treatment: bacterial lipopolysaccharide (Salmonella minnesota R595), 10 ng/ml. Detection: 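Nuclear mCherry signal of the Tnf promoter reporter measured by imaging after background removal, scaled to each plate median and turned into robust z-scores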. Scale: Tnf reporter robust z-score: higher = stronger Tnf promoter reporter signal after LPS. Active means: 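Called active when robust z-score is at most -1.3, matching the median of the Tlr4 knock-down control, or over 3; control wells and wells with under 50 cells never active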. Meaning of the calls: active = Tnf reporter clearly lowered or raised; inactive = no clear change in Tnf reporter.
This is an unselected part of about 17,000 deposited reagents. Of all reagents, about 1,110 (6.6%) are marked active. 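Active means lowered or raised reporter signal; replicate intensities are raw and not normalised per plate.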 Further read-outs or replicates are left out here. No sequences are given here.

gene symbol | PubChem SID | Tnf reporter robust z-score | fewer than 50 cells in well | activity call
Prl7d1 | SID315468587 | -1.38 | enough cells in well | active
Kcnq2 | SID315467600 | 0.19 | enough cells in well | inactive
Rpap2 | SID315478902 | 0.7 | enough cells in well | inactive
Steap1 | SID315474024 | 0.75 | enough cells in well | inactive
Cdc25a | SID315465884 | -0.13 | enough cells in well | inactive
Wdr5 | SID315477154 | -1.38 | enough cells in well | active
Or5ae2 | SID315480094 | -0.51 | enough cells in well | inactive
Daglb | SID315478941 | 0.72 | enough cells in well | inactive
H4c16 | SID315481286 | -0.57 | enough cells in well | inactive
Or6k8 | SID315480365 | -1.13 | enough cells in well | inactive
Stat4 | SID315469486 | -1.12 | enough cells in well | inactive
Gjd4 | SID315478400 | 0.67 | enough cells in well | inactive
Sack1h | SID315476505 | -0.77 | enough cells in well | inactive
Zfp459 | SID315481471 | -0.43 | enough cells in well | inactive
Laptm5 | SID315467730 | 0.68 | enough cells in well | inactive
Ccr3 | SID315466015 | -0.76 | enough cells in well | inactive

3 entries already listed, arranged by “Tnf reporter robust z-score”, descending:
gene symbol | PubChem SID | Tnf reporter robust z-score | fewer than 50 cells in well | activity call
Laptm5 | SID315467730 | 0.68 | enough cells in well | inactive
Zfp459 | SID315481471 | -0.43 | enough cells in well | inactive
Sack1h | SID315476505 | -0.77 | enough cells in well | inactive

Further records follow:
gene symbol | PubChem SID | Tnf reporter robust z-score | fewer than 50 cells in well | activity call
Syne3 | SID315477715 | – | fewer than 50 cells per well; well left out of calls | inactive
A730085E03Rik | SID315482005 | -0.58 | enough cells in well | inactive
Atp10a | SID315465571 | -0.42 | enough cells in well | inactive
Drc8 | SID315473464 | – | fewer than 50 cells per well; well left out of calls | inactive
Depdc1b | SID315478203 | 0.97 | enough cells in well | inactive
Gpr180 | SID315471898 | -0.55 | enough cells in well | inactive
Bltp3b | SID315475074 | 0.42 | enough cells in well | inactive
Or5h19 | SID315480010 | 1.73 | enough cells in well | inactive
Aen | SID315473388 | -0.52 | enough cells in well | inactive
Eif5a | SID315480975 | -1.11 | enough cells in well | inactive
Cenpk | SID315472015 | – | fewer than 50 cells per well; well left out of calls | inactive
Ly6g6c | SID315473538 | -0.14 | enough cells in well | inactive
Tiam2 | SID315470282 | 0.05 | enough cells in well | inactive
Dmtf1 | SID315470203 | – | fewer than 50 cells per well; well left out of calls | inactive
Wt1 | SID315470054 | -0.14 | enough cells in well | inactive
Kif1b | SID315467616 | -1.45 | enough cells in well | active
Ugt2b37 | SID315476969 | -0.46 | enough cells in well | inactive
Nudt2 | SID315472417 | -0.16 | enough cells in well | inactive
Or9g3 | SID315480228 | 0.15 | enough cells in well | inactive
Sbno2 | SID315477981 | -1.18 | enough cells in well | inactive
Magea9-ps | SID315477468 | -0.91 | enough cells in well | inactive
C130074G19Rik | SID315478523 | -0.31 | enough cells in well | inactive
Bckdha | SID315465606 | -0.06 | enough cells in well | inactive
Rapsn | SID315468896 | -0.81 | enough cells in well | inactive
